## Results of single-concentration screens

The chains behind the UniProt entries cited, without tags or fusion partners.
UniProt P9WPC5, whole entry: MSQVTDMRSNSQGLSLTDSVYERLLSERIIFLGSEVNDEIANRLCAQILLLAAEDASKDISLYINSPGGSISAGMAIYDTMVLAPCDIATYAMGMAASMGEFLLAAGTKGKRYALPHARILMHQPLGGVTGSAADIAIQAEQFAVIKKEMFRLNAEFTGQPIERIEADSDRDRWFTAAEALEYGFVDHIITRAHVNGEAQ
UniProt P9WPC3, whole entry partner: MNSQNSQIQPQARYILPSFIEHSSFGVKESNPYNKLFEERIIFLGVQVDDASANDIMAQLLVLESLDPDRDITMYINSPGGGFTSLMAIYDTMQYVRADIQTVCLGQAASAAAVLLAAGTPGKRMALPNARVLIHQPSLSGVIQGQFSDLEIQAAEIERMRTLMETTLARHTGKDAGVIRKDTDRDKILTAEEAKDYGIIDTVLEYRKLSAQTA
UniProt I6X8D2, whole entry: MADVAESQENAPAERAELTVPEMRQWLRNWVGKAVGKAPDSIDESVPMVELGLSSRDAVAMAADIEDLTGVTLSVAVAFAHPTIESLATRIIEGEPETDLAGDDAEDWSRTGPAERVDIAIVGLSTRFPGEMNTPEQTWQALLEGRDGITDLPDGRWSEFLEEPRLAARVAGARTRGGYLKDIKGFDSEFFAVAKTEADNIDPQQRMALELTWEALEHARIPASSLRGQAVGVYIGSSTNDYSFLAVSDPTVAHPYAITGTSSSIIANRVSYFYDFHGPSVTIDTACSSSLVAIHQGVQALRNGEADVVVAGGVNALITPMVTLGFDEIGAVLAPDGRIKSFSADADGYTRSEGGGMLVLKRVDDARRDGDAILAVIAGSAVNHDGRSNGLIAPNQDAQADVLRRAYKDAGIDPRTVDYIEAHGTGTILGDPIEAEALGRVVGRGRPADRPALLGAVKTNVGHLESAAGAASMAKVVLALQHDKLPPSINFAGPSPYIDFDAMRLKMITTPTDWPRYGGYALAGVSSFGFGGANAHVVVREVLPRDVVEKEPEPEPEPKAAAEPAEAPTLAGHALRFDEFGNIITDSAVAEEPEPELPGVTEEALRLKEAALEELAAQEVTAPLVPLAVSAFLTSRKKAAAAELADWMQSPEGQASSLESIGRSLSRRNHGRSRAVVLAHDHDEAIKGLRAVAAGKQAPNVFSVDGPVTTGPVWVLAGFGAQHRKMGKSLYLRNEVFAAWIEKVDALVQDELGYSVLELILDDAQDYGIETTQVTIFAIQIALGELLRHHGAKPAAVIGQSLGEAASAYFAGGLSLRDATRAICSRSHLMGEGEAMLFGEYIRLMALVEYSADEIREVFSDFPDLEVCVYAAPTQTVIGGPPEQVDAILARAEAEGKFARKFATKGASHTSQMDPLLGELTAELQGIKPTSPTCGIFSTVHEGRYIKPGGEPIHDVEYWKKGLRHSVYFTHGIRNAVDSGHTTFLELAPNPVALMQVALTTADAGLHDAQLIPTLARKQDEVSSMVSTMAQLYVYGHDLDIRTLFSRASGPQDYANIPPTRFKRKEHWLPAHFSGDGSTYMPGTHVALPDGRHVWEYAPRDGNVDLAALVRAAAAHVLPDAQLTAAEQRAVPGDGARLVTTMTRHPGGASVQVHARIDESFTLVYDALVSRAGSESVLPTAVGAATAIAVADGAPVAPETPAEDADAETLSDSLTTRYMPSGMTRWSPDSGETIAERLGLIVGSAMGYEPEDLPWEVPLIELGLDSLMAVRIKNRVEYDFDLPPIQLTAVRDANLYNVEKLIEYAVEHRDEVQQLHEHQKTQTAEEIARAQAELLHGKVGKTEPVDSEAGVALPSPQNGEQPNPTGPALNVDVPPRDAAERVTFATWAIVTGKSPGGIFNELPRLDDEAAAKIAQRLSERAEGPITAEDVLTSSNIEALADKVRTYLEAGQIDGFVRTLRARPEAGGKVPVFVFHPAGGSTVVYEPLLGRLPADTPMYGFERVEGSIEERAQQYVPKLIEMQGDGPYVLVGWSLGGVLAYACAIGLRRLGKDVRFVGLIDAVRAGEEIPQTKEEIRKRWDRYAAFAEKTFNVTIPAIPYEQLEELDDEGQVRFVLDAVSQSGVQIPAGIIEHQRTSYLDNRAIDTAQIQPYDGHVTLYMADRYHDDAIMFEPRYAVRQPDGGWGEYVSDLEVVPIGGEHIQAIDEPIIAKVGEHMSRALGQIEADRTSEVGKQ

Leishmania in macrophages: 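Cell assay of Leishmania donovani living inside macrophages; the read-out is not stated. Compounds at 30 µM. The record gives no direction; compounds that gave an IC50 in retests scored well above the rest, so higher reads as stronger inhibition. About 69,000 compounds were tested under these conditions; 1.5% (about 1,000) showed 50% or more at least once.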
Toxoplasma: 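Assay of Toxoplasma gondii numbers, read through their beta-galactosidase reporter with a colour substrate. Tested at 10 µM. Higher reads as fewer parasites (inferred from which compounds were picked for retests). Size under these conditions: about 67,000 compounds, about 260 of them at 50% or above in at least one test.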
ClpP1P2: 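ClpP1P2, Mycobacterium tuberculosis (UniProt P9WPC5 and UniProt P9WPC3). Protease assay of ClpP1P2, read by the AMC dye that it sets free. Tested at 50 µM. Higher reads as stronger inhibition, judged from the few compounds that gave an IC50. Most other retested compounds had strongly negative values. Of about 69,000 compounds tested this way, about 10 (0.015%) reached 50% or more in at least one test.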
T. brucei: 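Whole-parasite assay of Trypanosoma brucei over 72 hours; the read-out is not stated. Concentration: 30 µM. Direction is inferred from retests: higher values go with stronger inhibition. Values scatter widely below zero; nearly all retest evidence comes from the higher of the two concentrations used. Size under these conditions: about 64,000 compounds, about 940 of them at 50% or above in at least one test.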
Pks13 thioesterase: 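Polyketide synthase Pks13, Mycobacterium tuberculosis (UniProt I6X8D2). Enzyme assay of the thioesterase domain of polyketide synthase 13; the read-out is not stated. Tested at 30 µM. Higher reads as stronger inhibition (inferred from which compounds were picked for retests). About 67,000 compounds were tested under these conditions; 0.46% (about 300) showed 50% or more at least once.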

Values are the deposited “Percent Effect”, in %. How 0% and 100% were set is not recorded. Most values in the screen are low, and negative values occur. Compounds were drawn at random from those tested, without regard to their results. A dash means the value is not listed here; it may have been measured.

Compound	Leishmania in macrophages	Toxoplasma	ClpP1P2	T. brucei	Pks13 thioesterase
CC1(C)Cc2ccc(C(=O)NC3CCS(=O)(=O)C3)c(O)c2O1 (centres undefined)	17.34%	2.206%	-9.306%	-18.74%	18.16%
Cn1ccnc1SCCNC1CCN(c2ncccn2)CC1	-34.56%	0.6516%	1.859%	-6.395%	-23.87%
O=C(Cc1cccs1)N1CCOCC1c1ccccc1 (centres undefined)	-69.82%	-23.76%	-3.068%	-18.43%	-11.25%
CCNc1ccnc(N2Cc3cnn(Cc4ccc(F)cc4)c3C2)n1	45.31%	7.998%	-0.7365%	57.35%	-54.7%
Cc1nsc(N2CCCN(C(=O)NCc3cc(C)on3)CC2)n1	8.411%	4.722%	-13.01%	-5.646%	-21.03%
COCCn1cc2c(n1)C(CNS(C)(=O)=O)OCC2 (centres undefined)	-4.929%	-5.644%	-13%	-37.53%	-8.041%
O=C(O)C(F)(F)F.O=C(O)C(F)(F)F.[H][C@@]12CCCO[C@]1([H])[C@H](NC(=O)c1ccncc1)CN(c1ncccn1)C2	24.68%	7.099%	-	-3.463%	-
COc1cccc2c1CCC2NC(=O)NCc1csc(N(C)C)n1 (centres undefined)	19.8%	-0.9201%	-10.08%	-6.382%	-29.29%
Cn1ncc(C2CC(=O)NCc3nc4ccccn4c32)c1C1CC1 (centres undefined)	15.46%	-1.874%	-0.881%	-47.04%	-6.246%
CN1CCN(C(=O)c2n[nH]c3c2CN(C2CCOC2)CC3)CC1 (centres undefined)	7.447%	-11.06%	-6.707%	-13.35%	-20.79%
O=C(c1cc(Cl)c(Br)[nH]1)N1CCN(Cc2ccco2)CC1	-26.93%	4.536%	0.4892%	-	16.46%
Fc1ccc(-c2noc3c2CN(CC2CC2)CC3)cc1F	-30.46%	-1.249%	-36.56%	-7.869%	-159.4%
Fc1cnc(N2CCOCC3(CCCN(c4nncs4)C3)C2)nc1 (centres undefined)	-15.94%	2.007%	7.964%	11.92%	-7.422%
CCCS(=O)(=O)CC(=O)Nc1cc(CC(C)(C)C)n[nH]1	-8.355%	-5.227%	-5.276%	6.28%	-4.58%
CN(Cc1noc(C2CC2)n1)C1CCN(Cc2cccc(F)c2F)C1 (centres undefined)	-14.91%	67.09%	-25.3%	-	-30.07%
CCOc1ccccc1-c1cc2c(cc1C(N)=O)OCO2	17.58%	5.113%	0.4113%	-26.31%	-14.81%
O=C(c1csnn1)N1CCCC(n2cncn2)C1 (centres undefined)	-19.75%	1.329%	4.418%	-11.75%	-21.21%
CCn1c(C)cc(-c2csc(Cn3ccc(=O)[nH]c3=O)n2)c1C	15.96%	-0.6944%	5.077%	-29.78%	-20.06%
Cc1ccc(CN2CCCC23Cc2ccccc2CNC3=O)cc1 (centres undefined)	-22.16%	30.62%	24.12%	-	-45.44%
O=C(NCCc1ccccn1)NC1CCN(c2ccccc2)C1=O (centres undefined)	32.55%	-3.303%	-8.19%	14.74%	-16.42%
O=C(CN1CCS(=O)(=O)CC1)NC1CCCCc2ccccc21 (centres undefined)	5.006%	-2.253%	-1.718%	9.356%	-22.27%
Cc1cc(=O)n(CC(=O)NCC2CCCO2)c(-c2ccccc2)n1 (centres undefined)	-78.27%	11.61%	-8.799%	-	-12.67%
O=C(COc1coc(CN2CCOCC2)cc1=O)c1ccc(Cl)cc1	3.696%	-1.86%	0.4457%	22.86%	-29.66%
[H][C@@]12CS(=O)(=O)C[C@]1([H])N(C(=O)c1cncnc1C)CCN2CCC	-24%	2.924%	-	-19.78%	-
Cc1ccccc1-c1noc(-c2ccc(N(C)C3CCOCC3)nc2)n1	9.743%	-0.4065%	6.26%	3.411%	18.29%
COc1cc(Br)c(S(=O)(=O)NC(=O)C(C)OC)cc1OC (centres undefined)	31.91%	3.728%	-7.072%	-1.744%	-0.3184%
Cn1cc(CN2CCC3(CCCN3Cc3cccnc3)CC2)cn1.O=C(O)C(F)(F)F.O=C(O)C(F)(F)F.O=C(O)C(F)(F)F	63.2%	-12.65%	-	-17.58%	-
CCS(=O)(=O)CC(=O)NC(c1ccccc1)C1CCCCC1 (centres undefined)	37.83%	2.162%	-5.223%	18.48%	-30.91%
CCc1cc(N2CCCC(CC)(C(=O)O)C2)nc(N2CCOCC2)n1 (centres undefined)	12.94%	-3.215%	-8.285%	-57.09%	-9.141%
CCn1c(C)cc(C(=O)N2CCC(Nc3ccc(C)nn3)CC2)c1C	44.21%	1.781%	-5.004%	-16.34%	3.579%

3 of the entries, repeated:

Compound,Leishmania in macrophages,Toxoplasma,ClpP1P2,T. brucei,Pks13 thioesterase
CN(Cc1noc(C2CC2)n1)C1CCN(Cc2cccc(F)c2F)C1 (centres undefined),-14.91%,67.09%,-25.3%,-,-30.07%
Cc1nsc(N2CCCN(C(=O)NCc3cc(C)on3)CC2)n1,8.411%,4.722%,-13.01%,-5.646%,-21.03%
Cc1ccc(CN2CCCC23Cc2ccccc2CNC3=O)cc1 (centres undefined),-22.16%,30.62%,24.12%,-,-45.44%

Data taken from ChEMBL document CHEMBL3988442, “University of Dundee, Small-Polar-MMV Screening Library” (2021).